Drawing on article PMC8187744, this text covers binding for two molecules.

Amino acid sequences for entries named in this document (tags omitted). A change or cut given only in a name is not applied to a line headed by its entry.
UniProt P31749: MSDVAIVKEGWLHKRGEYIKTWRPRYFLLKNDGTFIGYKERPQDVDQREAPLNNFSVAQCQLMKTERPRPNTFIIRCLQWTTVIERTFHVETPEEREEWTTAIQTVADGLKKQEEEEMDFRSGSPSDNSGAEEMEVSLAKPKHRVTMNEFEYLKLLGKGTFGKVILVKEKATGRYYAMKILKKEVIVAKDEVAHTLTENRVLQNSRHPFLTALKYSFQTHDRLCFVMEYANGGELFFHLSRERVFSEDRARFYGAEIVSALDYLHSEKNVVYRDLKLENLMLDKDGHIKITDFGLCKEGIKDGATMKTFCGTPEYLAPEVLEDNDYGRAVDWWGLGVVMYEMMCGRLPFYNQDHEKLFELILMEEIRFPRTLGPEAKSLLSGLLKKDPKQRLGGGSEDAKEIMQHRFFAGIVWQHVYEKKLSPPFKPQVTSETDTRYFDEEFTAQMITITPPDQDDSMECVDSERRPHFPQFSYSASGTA
UniProt O14744: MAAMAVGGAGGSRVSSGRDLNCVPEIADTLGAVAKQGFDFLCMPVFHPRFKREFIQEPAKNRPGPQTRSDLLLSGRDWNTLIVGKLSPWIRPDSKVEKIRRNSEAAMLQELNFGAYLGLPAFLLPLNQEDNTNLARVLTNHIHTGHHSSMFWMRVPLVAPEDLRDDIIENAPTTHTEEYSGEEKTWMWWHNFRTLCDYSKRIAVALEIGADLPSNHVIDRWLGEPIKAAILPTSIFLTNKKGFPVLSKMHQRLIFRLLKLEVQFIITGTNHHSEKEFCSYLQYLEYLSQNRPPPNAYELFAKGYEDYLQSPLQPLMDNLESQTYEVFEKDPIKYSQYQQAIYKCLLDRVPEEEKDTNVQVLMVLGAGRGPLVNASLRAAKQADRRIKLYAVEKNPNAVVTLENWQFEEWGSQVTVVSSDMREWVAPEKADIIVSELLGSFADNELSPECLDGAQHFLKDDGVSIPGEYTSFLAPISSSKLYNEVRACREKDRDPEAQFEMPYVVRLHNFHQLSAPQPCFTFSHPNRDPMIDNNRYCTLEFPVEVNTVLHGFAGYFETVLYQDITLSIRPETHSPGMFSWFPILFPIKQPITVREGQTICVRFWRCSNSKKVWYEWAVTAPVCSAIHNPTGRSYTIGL

The target in assay [1] is AKT1 (human (endogenous in MCF7)), P31749. Nature of the assay: co-IP; control and PRMT5-knockdown MCF7 cells; IB of WCLs and IP products. To be noted: remark: other sources report otherwise.
Assay [2] concerns the target AKT1-WT expressed in DLD-1-AKT1/2-/- cells (human), P31749. Nature of the assay: co-IP; DLD-1-AKT1/2-/- cells expressing AKT1-WT or R391K; serum-starved 16 h, then 100 nM insulin for 60 min. To be noted: remark: other sources report otherwise.
The target in assay [3] is protein arginine methyltransferase 5 (PRMT5) (human (endogenous in MCF7)) (UniProt O14744). The assay can be described thus: co-IP; endogenous proteins, MCF7 whole cell lysates; PRMT5 immunoprecipitated, IgG as negative control.
The target in assay [4] is AKT1-R391K expressed in DLD-1-AKT1/2-/- cells (human) (UniProt P31749). Nature of the assay: co-IP; DLD-1-AKT1/2-/- cells expressing AKT1-WT or R391K; serum-starved 16 h, then 100 nM insulin for 60 min.

These are yes or no findings as the source states them, for the method shown. In cells and extracts the contact can be indirect. Some results given as binding are weak or reduced against the parent protein; the word gives no strength.

B1: phosphoinositide-dependent kinase-1 (PDK1), O15530 1-556 (protein)
chain: MARTTSQLYDAVPIQSSVVLCSCPSPSMVRTQTESSTPPGIPGGSRQGPAMDGTAAEPRPGAGSLQHAQPPPQPRKKRPEDFKFGKILGEGSFSTVVLARELATSREYAIKILEKRHIIKENKVPYVTRERDVMSRLDHPFFVKLYFTFQDDEKLYFGLSYAKNGELLKYIRKIGSFDETCTRFYTAEIVSALEYLHGKGIIHRDLKPENILLNEDMHIQITDFGTAKVLSPESKQARANSFVGTAQYVSPELLTEKSACKSSDLWALGCIIYQLVAGLPPFRAGNEYLIFQKIIKLEYDFPEKFFPKARDLVEKLLVLDATKRLGCEEMEGYGPLKAHPFFESVTWENLHQQTPPKLTAYLPAMSEDDEDCYGNYDNLLSQFGCMQVSSSSSSHSLSASDTGLPQRSGSNIEQYIHDLDSNSFELDLQFSEDEKRLLLEKQAGGNPWHQFVENNLILKMGPVDKRKGLFARRRQLLLTEGPHLYYVDPVNKVLKGEIPWSQELRPEAKNFKTFFVHTPNRTYYLMDPSGNAHKWCRKIQEVWRQRYQSHPDAAVQ
Turning to B1, the binding result in assay [1] and in assay [2] was “binds” throughout.

B2: phosphoinositide-dependent kinase-1 (PDK1) (protein, UniProt O15530 1-556)
chain: B1 chain
With B2, the values for the binding entry in assay [3] and in assay [4] were “no binding” and “binds”, respectively.
